Among the data in article PMC9270653 are binding values, retold here.

Amino acid sequences for entries named in this document (tags omitted).
UniProt Q8K019: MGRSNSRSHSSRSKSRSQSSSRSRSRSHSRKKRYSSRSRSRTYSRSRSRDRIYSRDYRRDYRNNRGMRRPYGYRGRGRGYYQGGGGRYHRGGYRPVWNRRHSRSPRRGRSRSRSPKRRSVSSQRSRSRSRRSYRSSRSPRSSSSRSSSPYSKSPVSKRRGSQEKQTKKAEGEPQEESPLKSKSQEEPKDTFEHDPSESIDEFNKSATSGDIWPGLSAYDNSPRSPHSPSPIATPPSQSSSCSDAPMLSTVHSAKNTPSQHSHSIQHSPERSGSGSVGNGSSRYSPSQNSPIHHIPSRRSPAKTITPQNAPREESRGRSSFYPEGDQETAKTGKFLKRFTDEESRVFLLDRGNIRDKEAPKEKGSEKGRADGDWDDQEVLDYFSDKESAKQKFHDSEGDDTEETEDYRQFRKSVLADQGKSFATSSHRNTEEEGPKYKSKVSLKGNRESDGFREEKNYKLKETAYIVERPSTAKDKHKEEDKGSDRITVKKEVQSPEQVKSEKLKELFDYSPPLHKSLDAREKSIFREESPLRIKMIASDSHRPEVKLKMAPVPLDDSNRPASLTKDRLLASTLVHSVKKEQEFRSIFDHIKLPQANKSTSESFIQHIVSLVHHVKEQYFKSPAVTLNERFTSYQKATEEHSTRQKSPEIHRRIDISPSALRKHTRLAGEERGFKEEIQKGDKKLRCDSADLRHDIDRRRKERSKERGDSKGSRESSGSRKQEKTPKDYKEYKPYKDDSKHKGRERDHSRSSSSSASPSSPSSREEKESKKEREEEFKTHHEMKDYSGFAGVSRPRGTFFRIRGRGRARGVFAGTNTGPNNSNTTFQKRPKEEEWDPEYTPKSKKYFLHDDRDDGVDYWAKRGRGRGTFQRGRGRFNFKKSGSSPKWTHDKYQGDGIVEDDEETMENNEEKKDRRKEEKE

In this assay the target is T1, Thrap3 (mouse (endogenous in mESCs)) (UniProt Q569Z6).
T1 sequence: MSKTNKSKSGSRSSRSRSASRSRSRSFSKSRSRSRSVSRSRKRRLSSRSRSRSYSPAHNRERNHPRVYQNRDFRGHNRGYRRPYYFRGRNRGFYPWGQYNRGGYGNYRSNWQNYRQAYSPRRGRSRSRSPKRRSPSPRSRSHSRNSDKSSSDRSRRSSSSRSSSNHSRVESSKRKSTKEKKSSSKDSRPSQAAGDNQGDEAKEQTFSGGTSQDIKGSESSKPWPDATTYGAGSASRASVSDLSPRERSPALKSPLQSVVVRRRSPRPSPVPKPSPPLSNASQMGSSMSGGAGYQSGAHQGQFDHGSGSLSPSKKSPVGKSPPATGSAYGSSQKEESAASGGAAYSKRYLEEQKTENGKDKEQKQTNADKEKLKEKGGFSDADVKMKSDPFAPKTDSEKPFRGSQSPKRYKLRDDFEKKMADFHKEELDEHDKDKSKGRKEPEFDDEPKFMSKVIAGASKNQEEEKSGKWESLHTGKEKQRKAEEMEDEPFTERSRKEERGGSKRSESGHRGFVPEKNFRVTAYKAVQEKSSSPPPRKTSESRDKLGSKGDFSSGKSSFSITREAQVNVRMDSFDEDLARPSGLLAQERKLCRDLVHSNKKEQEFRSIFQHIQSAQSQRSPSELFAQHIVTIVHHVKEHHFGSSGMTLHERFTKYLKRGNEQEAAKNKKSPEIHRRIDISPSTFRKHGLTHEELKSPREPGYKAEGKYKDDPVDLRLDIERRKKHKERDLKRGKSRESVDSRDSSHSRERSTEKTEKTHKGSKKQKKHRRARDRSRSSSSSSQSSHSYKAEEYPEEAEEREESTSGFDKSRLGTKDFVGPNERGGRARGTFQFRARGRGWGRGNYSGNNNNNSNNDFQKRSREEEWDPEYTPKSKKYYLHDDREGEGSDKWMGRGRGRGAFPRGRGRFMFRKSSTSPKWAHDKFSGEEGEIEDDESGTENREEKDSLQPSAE
Put plainly: cross-linking; DSSO 1 mM (experiments 1-4) or 5 mM (experiment 5), 1 h at RT, on the anti-Arid1a immunoprecipitate from mESC nuclear lysate while still on the beads; IP at 150 mM NaCl (450 mM in experiment 4); MS3 mass spectrometry, XlinkX, 1% FDR; five experiments.

Results are given in words; binding and its absence hold for the method and conditions named. Binding seen in cells or lysates may run through a third protein. Some binding calls cover weakened binding; strength is not graded here.

As for Bclaf1 (from UniProt Q8K019 1-919), the binding entry was “binds”.
